SMILES strings stand for the structures. Some of the results follow. Hit calls seldom repeat between salt and free forms of one compound.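 Kinases were expressed as nanoluciferase fusions in K562 cells and luminescence was read every 4 h between 2 and 18 h as percent of control, DMSO set to 100% and a positive control to 0%. A time point counts as decreased when the signal drops significantly (2 sigma). The hit call is the authors' own, does not follow from the count of time points alone, and its rule is not shown.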

The test has as its target EGFR_G719S (UniProt P00533). In words: number of time points (of 5) at which kinase-Nluc abundance scored as decreased, DMSO-normalised (count); higher = more persistent destabilization. The note with it: K562; 2-18 h.
As to `COc1cc(S(C)(=O)=O)ccc1Nc1nc2ccc(-c3ccc(NC(=O)[C@H](C)c4ccc(F)cc4)cc3)cn2n1` [Empesertib] (10 µM), the “number of time points” value was determined as 0.

Consider `CO[C@H]1C[C@@H]2CC[C@@H](C)[C@@](O)(O2)C(=O)C(=O)N2CCCC[C@H]2C(=O)O[C@H]([C@H](C)C[C@@H]2CC[C@@H](O)[C@H](OC)C2)CC(=O)[C@H](C)/C=C(\C)[C@@H](O)[C@@H](OC)C(=O)[C@H](C)C[C@H](C)/C=C/C=C/C=C/1C` [Rapamycin] (10 µM), for which the “number of time points” value stood at 0.

In the case of `COc1ccc(Cl)cc1NC(=O)Nc1cc(C)nc2ccccc12` (2.5 µM), the “number of time points” value worked out at 0.

With `CNc1nc(Nc2cnn(C3CCN(C4COC4)CC3F)c2Cl)ncc1C(F)(F)F` (stereo not given) (10 µM), the “number of time points” value amounted to 0.

As to `Cc1ccc2nc(NC(=O)CSc3nc4c(c(=O)n3-c3ccccc3)SCC4)sc2c1` (2 µM), the “number of time points” value worked out at 0.

Consider `Cc1noc(C)c1-c1ccc(-c2cc(C(N)=O)c(NC(N)=O)s2)c(O[C@H]2CCNC2)c1` (10 µM), for which the “number of time points” value came out at 0.

As for `Fc1ccc(-c2nc(-c3c(F)cccc3F)[nH]c2-c2ccncc2)cc1` (10 µM), the “number of time points” value stood at 0.

Take `C=CC(=O)Nc1ccc(CN(C(=O)Nc2c(Cl)c(OC)cc(OC)c2Cl)c2cc(Nc3ccc(N4CCN(C)CC4)cc3)ncn2)cc1` (10 µM): the “number of time points” value was 0.

For `CCN(CC)c1ccc2cc(C(=O)N3CCN(C(=O)C4=Cc5c(Br)cccc5S4(=O)=O)CC3)c(=O)oc2c1` (2 µM), the “number of time points” value stood at 0.

On to `CN1CCN(c2ccc(Nc3ncc4nc(Nc5ccccc5)n([C@@H]5CCN(S(=O)(=O)C6CC6)C5)c4n3)cc2)CC1` (2.5 µM), for which the “number of time points” value turned out to be 0.
